Data published in PubChem BioAssay AID1487 (National Center for Advancing Translational Sciences (NCATS), 2009).
Some of the results follow. These are further read-outs of the screen, such as a control signal, another cell line or another target. No call is given for them. Compounds called inactive in the main read-out are mostly missing here. The note in brackets gives the kind of curve behind each potency; many fits are weak.

Assay: qHTS Assay for Modulators of Lamin A Splicing
Conditions: HeLa LMNA splicing GFP/RFP minigene ratio, 48 h
How it was run: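 Read-out is the ratio of GFP to DsRed2 object intensity, acquired by 488 nm laser-scanning cytometry on HeLa lamin A-EGFP minigene reporter cells. Compound incubation 48 hrs at 37 °C in Opti-MEM with 2% FBS; DMSO 0.5% final.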

[1] = measured here: RFP viability control channel
[2] = measured here: GFP splicing reporter channel

| Structure (SMILES) | AC50 [1] | AC50 [2] |
| --- | --- | --- |
| CCOC(=O)c1csc(NC(=O)COc2ccc(Cl)cc2Cl)n1 | 35.5 µM [rising, single point] |  |
| Cc1ccc(C2CC(=O)Nc3c2ccc2ccccc32)cc1[N+](=O)[O-] (stereo not given) | 35.5 µM [rising, single point] | 35.5 µM [rising, single point] |
| CC1CN(c2ccc(C(F)(F)F)cc2[N+](=O)[O-])CCN1S(C)(=O)=O (stereo not given) | 11.2 µM [rising, single point] |  |
| Cc1ccccc1NC(=S)NCCC(c1ccccc1)c1ccccc1 | 12.6 µM [falling, partial curve] | 35.5 µM [falling, single point] |
| C=C(C)COc1ccc(-c2nc(N)ncc2Oc2ccccc2OCC)c(O)c1 | 12.6 µM [falling, single point] | 15.8 µM [falling, single point] |
| S=C(Nc1ccc(Cl)cc1)c1nc2ccccc2[nH]1 | 10 µM [rising, partial curve, poor fit] |  |
| CC(C)CC(=O)O/N=C1\C(=O)N(Cc2ccc(Cl)cc2)c2ccc([N+](=O)[O-])cc21 | 35.5 µM [falling, single point] | 35.5 µM [falling, single point] |
| CCOC(=O)N1CCN(C(=O)c2cccc(F)c2)CC1 | 5.62 µM [falling, single point] | 3.98 µM [falling, single point] |
| Cc1cc(C)cc(Oc2nc(-c3ccccc3)cc(C)c2S(C)(=O)=O)c1 |  | 20 µM [rising, partial curve, poor fit] |
| Cc1cc(C)cc(N(CCC(=O)Nc2nnc(C3CC3)s2)S(=O)(=O)c2ccc(Cl)cc2)c1 | 11.2 µM [rising, partial curve, poor fit] |  |
| Cc1cc(C(F)(F)F)nn1Cc1n[nH]c(=S)n1-c1ccc(F)cc1 | 2.51 µM [falling, partial curve, poor fit] |  |
| O=C(COC(=O)C1=COCCO1)NC1CCCCCCC1 | 0.708 µM [rising, partial curve, poor fit] |  |
| O=[N+]([O-])c1cccc2c(Cl)ccnc12 |  | 35.5 µM [rising, single point] |
| Cc1ccc(C)c(NC(=O)C(=O)NCCc2csc(-c3cccc(F)c3)n2)c1 | 0.00501 µM [falling, full curve] | 0.00891 µM [falling, full curve, poor fit] |
| O=C(c1ccccc1)N1CCN(Cc2cccc(Oc3ccccc3)c2)CC1 | 17.8 µM [rising, single point] |  |
| O=C(c1cc(C(=O)NCCc2ccccc2)c(=O)n(CCc2ccccc2)c1)c1cc(Cl)ccc1O | 11.2 µM [rising, partial curve] |  |
| C=CCn1cc(C(=O)NCc2ccc(Cl)cc2)c(=O)c2cc(S(=O)(=O)N(CC)CC)ccc21 | 12.6 µM [rising, single point] |  |

Three of these compounds, set out differently:
Structure (SMILES)	AC50 [1]	AC50 [2]
CCOC(=O)c1csc(NC(=O)COc2ccc(Cl)cc2Cl)n1	35.5 µM [rising, single point]	
CC(C)CC(=O)O/N=C1\C(=O)N(Cc2ccc(Cl)cc2)c2ccc([N+](=O)[O-])cc21	35.5 µM [falling, single point]	35.5 µM [falling, single point]
O=C(c1cc(C(=O)NCCc2ccccc2)c(=O)n(CCc2ccccc2)c1)c1cc(Cl)ccc1O	11.2 µM [rising, partial curve]	

Next part

| Structure (SMILES) | AC50 [1] | AC50 [2] |
| --- | --- | --- |
| O=C(/C=C/c1cccc(F)c1)Nc1cc(S(=O)(=O)N2CCOCC2)ccc1N1CCCC1 | 0.355 µM [rising, full curve, poor fit] |  |
| COc1ccc(S(=O)(=O)N2CCC(C(=O)N3CCc4ccccc4C3)CC2)cc1OC |  | 11.2 µM [rising, partial curve] |
| S=c1[nH]nc(C2CCCCC2)n1/N=C/c1ccc(Br)s1 | 28.2 µM [falling, single point] | 25.1 µM [falling, single point] |
| Cc1ccc(CN2CCc3nc(N4CCN(C)CC4)ncc3C2)cc1 | 1.78 µM [falling, full curve, poor fit] | 4.47 µM [falling, full curve] |
| COc1ccc(C(=O)Nn2c(SCC(=O)NC3CCCC3)nc3ccccc3c2=O)cc1 | 6.31 µM [rising, single point] |  |
| COCCn1c(SCC(=O)Nc2sccc2C(N)=O)nc2cc(Cl)ccc2c1=O | 11.2 µM [rising, partial curve] | 8.91 µM [rising, partial curve] |
| COc1ccc(C(=O)N2CCC(c3ccncc3)CC2)cc1OC | 6.31 µM [falling, single point] | 6.31 µM [falling, single point] |
| Cc1oc2c(O)c(O)ccc2c(=O)c1-c1ccccc1 |  | 3.16 µM [falling, single point] |
| CC(Nc1nc(-c2ccc3c(c2)NC(=O)CO3)cs1)c1ccccc1 (stereo not given) | 35.5 µM [falling, single point] | 35.5 µM [falling, single point] |
| COc1cc(OC)cc(C(=O)OCc2ccc([N+](=O)[O-])cc2)c1 |  | 0.0447 µM [rising, full curve, poor fit] |
| CSC1=C(C#N)C(c2ccccc2Cl)C(C(=O)c2cccs2)C(O)(C(F)(F)F)N1 (stereo not given) | 17.8 µM [rising, single point] | 12.6 µM [rising, single point] |
| CCOc1ccc(S(=O)(=O)N(CC(=O)Nc2cc(C)on2)Cc2ccccc2Cl)cc1 | 28.2 µM [rising, single point] | 35.5 µM [rising, single point] |
| N#C/C(=C\c1ccc2c(c1)OCCO2)C(=O)NC1CCCCC1 | 35.5 µM [rising, single point] |  |
| CCOc1ccc(OCC)c(NC(=O)CSc2nnc(-c3cccnc3)o2)c1 | 12.6 µM [falling, partial curve, poor fit] | 35.5 µM [falling, single point] |
| CCNC(=S)Nc1ccc(Cl)c(C(F)(F)F)c1 | 35.5 µM [rising, single point] |  |
| Cc1ccccc1NCC(=O)N/N=C\C=C\c1cccc([N+](=O)[O-])c1 | 7.08 µM [falling, partial curve, poor fit] | 11.2 µM [falling, partial curve, poor fit] |
| CCc1ccc(OC(C)c2nnc(SCC(=O)Nc3ncccc3C)n2C)cc1 (stereo not given) | 14.1 µM [rising, single point] | 12.6 µM [rising, single point] |
